Measured values from patent US9938322B2 (priority 2013, dated 2018).
HELM strings list residues between dots; [ac] is acetyl, [am] amide, other brackets name non-standard units.

Test: general procedure: Fmoc solid-phase peptide synthesis; preloaded Fmoc-amino acid 2-chlorotrityl resins
Conditions: whole synthesis, scale of the general procedure approximately 80 mg resin per vessel
With “PEPTIDE1{I.[Dap].Y.[Dab].[Orn].[DDab].[Dab].W.[Dab].[tBuGly].A.S.[dP].P}$PEPTIDE1,PEPTIDE1,1:R1-14:R2$$$V2.0” the “purity (crude or final not stated)” value was 93%. With “PEPTIDE1{I.[alloThr].Y.[Dab].[Orn].[D-Dab].[Dab].W.[Dab].[tBuGly].A.S.[dP].P}$PEPTIDE1,PEPTIDE1,1:R1-14:R2$$$V2.0” the “purity (crude or final not stated)” value was 90%. In the case of “PEPTIDE1{L.A.Y.[Dab].K.[D-Dab].[Dab].W.[Dab].[Cha].A.S.[dP].P}$PEPTIDE1,PEPTIDE1,1:R1-14:R2$$$V2.0”, the “purity (crude or final not stated)” value is reported as 86%. For “PEPTIDE1{L.A.Y.[Dab].[Orn].[D-Dab].[Dab].W.[Dab].[Cha].A.S.[dP].P}$PEPTIDE1,PEPTIDE1,1:R1-14:R2$$$V2.0”, the “purity (crude or final not stated)” value was 89%. For “PEPTIDE1{L.A.Y.[Dab].[Orn].[D-Dab].[Dab].W.[Dab].[Chg].A.S.[dP].P}$PEPTIDE1,PEPTIDE1,1:R1-14:R2$$$V2.0”, the “purity (crude or final not stated)” value was 90%. In the case of “PEPTIDE1{L.A.Y.[Dab].[Orn].[D-Dab].[Dab].W.[Dab].[tBuGly].S.S.[dP].P}$PEPTIDE1,PEPTIDE1,1:R1-14:R2$$$V2.0”, the “purity (crude or final not stated)” value is reported as 89%. For “PEPTIDE1{L.A.Y.[Dab].[Orn].[DDab].[Dab].W.[Dab].[tBuGly].A.S.[dP].P}$PEPTIDE1,PEPTIDE1,1:R1-14:R2$$$V2.0”, the “purity (crude or final not stated)” value was 75%. In the case of “PEPTIDE1{L.A.Y.[Dab].[Orn].[DDab].[Dab].W.[Dab].[tBuGly].S.T.[dP].P}$PEPTIDE1,PEPTIDE1,1:R1-14:R2$$$V2.0”, the “purity (crude or final not stated)” value is reported as 85%. For “PEPTIDE1{L.A.[Cha].[Dab].[Orn].[DDab].[Dab].W.[Dab].[tBuGly].S.S.[dP].P}$PEPTIDE1,PEPTIDE1,1:R1-14:R2$$$V2.0”, the “purity (crude or final not stated)” value was 84%. With “PEPTIDE1{L.D.Y.[Dab].[Orn].[D-Dab].[Dab].W.[Dab].[tBuGly].N.S.[dP].P}$PEPTIDE1,PEPTIDE1,1:R1-14:R2$$$V2.0” the “purity (crude or final not stated)” value was 95%. With “PEPTIDE1{L.D.Y.[Dab].[Orn].[D-Dab].[Dab].W.[Dab].[tBuGly].Y.S.[dP].P}$PEPTIDE1,PEPTIDE1,1:R1-14:R2$$$V2.0” the “purity (crude or final not stated)” value was 94%. For “PEPTIDE1{L.D.Y.[Dab].[Orn].[D-Dab].[Dab].W.[Dab].[tBuGly].[Dab].S.[dP].P}$PEPTIDE1,PEPTIDE1,1:R1-14:R2$$$V2.0”, the “purity (crude or final not stated)” value was 94%. For “PEPTIDE1{L.G.Y.[Dab].[Orn].[DDab].[Dab].W.[Dab].[tBuGly].[Dab].S.[dP].P}$PEPTIDE1,PEPTIDE1,1:R1-14:R2$$$V2.0”, the “purity (crude or final not stated)” value was 88%. For “PEPTIDE1{L.N.Y.[Dab].[Orn].[D-Dab].[Dab].W.[Dab].[tBuGly].N.S.[dP].P}$PEPTIDE1,PEPTIDE1,1:R1-14:R2$$$V2.0”, the “purity (crude or final not stated)” value was 94%. With “PEPTIDE1{L.N.Y.[Dab].[Orn].[D-Dab].[Dab].W.[Dab].[tBuGly].T.S.[dP].P}$PEPTIDE1,PEPTIDE1,1:R1-14:R2$$$V2.0” the “purity (crude or final not stated)” value was 94%. For “PEPTIDE1{L.S.F.[Dab].[Orn].[DDab].[Dab].W.[Dab].[tBuGly].A.S.[dP].P}$PEPTIDE1,PEPTIDE1,1:R1-14:R2$$$V2.0”, the “purity (crude or final not stated)” value was 87%. In the case of “PEPTIDE1{L.S.W.[Dab].[Orn].[DDab].[Dab].W.[Dab].W.A.S.[dP].P}$PEPTIDE1,PEPTIDE1,1:R1-14:R2$$$V2.0”, the “purity (crude or final not stated)” value is reported as 92%. With “PEPTIDE1{L.S.W.[Dab].[Orn].[DDab].[Dab].W.[Dab].[tBuGly].A.S.[dP].P}$PEPTIDE1,PEPTIDE1,1:R1-14:R2$$$V2.0” the “purity (crude or final not stated)” value was 91%. For “PEPTIDE1{L.S.Y.[Dab].K.[DDab].[Dab].W.[Dab].W.A.S.[dP].P}$PEPTIDE1,PEPTIDE1,1:R1-14:R2$$$V2.0”, the “purity (crude or final not stated)” value was 91%. In the case of “PEPTIDE1{L.S.Y.[Dab].K.[DDab].[Dab].W.[Dab].[tBuGly].A.S.[dP].P}$PEPTIDE1,PEPTIDE1,1:R1-14:R2$$$V2.0”, the “purity (crude or final not stated)” value is reported as 86%. In the case of “PEPTIDE1{L.S.Y.[Dab].R.[DDab].[Dab].W.[Dab].[tBuGly].A.S.[dP].P}$PEPTIDE1,PEPTIDE1,1:R1-14:R2$$$V2.0”, the “purity (crude or final not stated)” value is reported as 91%. For “PEPTIDE1{L.S.Y.[Dab].[Dab].[DDab].[Dab].W.[Dab].[tBuGly].A.S.[dP].P}$PEPTIDE1,PEPTIDE1,1:R1-14:R2$$$V2.0”, the “purity (crude or final not stated)” value was 91%. For “PEPTIDE1{L.S.Y.[Dab].[Dap].[DDab].[Dab].W.[Dab].[tBuGly].A.S.[dP].P}$PEPTIDE1,PEPTIDE1,1:R1-14:R2$$$V2.0”, the “purity (crude or final not stated)” value was 88%. With “PEPTIDE1{L.S.Y.[Dab].[Orn].[D-Dab].[Dab].W.[Dab].W.S.S.[dP].P}$PEPTIDE1,PEPTIDE1,1:R1-14:R2$$$V2.0” the “purity (crude or final not stated)” value was 92%. With “PEPTIDE1{L.S.Y.[Dab].[Orn].[D-Dab].[Dab].W.[Dab].[Chg].S.S.[dP].P}$PEPTIDE1,PEPTIDE1,1:R1-14:R2$$$V2.0” the “purity (crude or final not stated)” value was 91%. For “PEPTIDE1{L.S.Y.[Dab].[Orn].[D-Dab].[Dab].W.[Dab].[tBuGly].A.S.[dP].[Pro((3S)OH)]}$PEPTIDE1,PEPTIDE1,1:R1-14:R2$$$V2.0”, the “purity (crude or final not stated)” value was 82%. In the case of “PEPTIDE1{L.S.Y.[Dab].[Orn].[D-Dab].[Dab].W.[Dab].[tBuGly].A.T.[dP].P}$PEPTIDE1,PEPTIDE1,1:R1-14:R2$$$V2.0”, the “purity (crude or final not stated)” value is reported as 95%. In the case of “PEPTIDE1{L.S.Y.[Dab].[Orn].[D-Dab].[Dab].W.[Dab].[tBuGly].S.S.[dP].P}$PEPTIDE1,PEPTIDE1,1:R1-14:R2$$$V2.0”, the “purity (crude or final not stated)” value is reported as 85%. For “PEPTIDE1{L.S.Y.[Dab].[Orn].[DDab].R.W.[Dab].[tBuGly].A.S.[dP].P}$PEPTIDE1,PEPTIDE1,1:R1-14:R2$$$V2.0”, the “purity (crude or final not stated)” value was 94%. With “PEPTIDE1{L.S.Y.[Dab].[Orn].[DDab].[DDab].W.[Dab].[tBuGly].A.S.[dP].P}$PEPTIDE1,PEPTIDE1,1:R1-14:R2$$$V2.0” the “purity (crude or final not stated)” value was 80%. For “PEPTIDE1{L.S.Y.[Dab].[Orn].[DDab].[Dab].W.K.[tBuGly].A.S.[dP].P}$PEPTIDE1,PEPTIDE1,1:R1-14:R2$$$V2.0”, the “purity (crude or final not stated)” value was 93%. For “PEPTIDE1{L.S.Y.[Dab].[Orn].[DDab].[Dab].W.R.[tBuGly].A.S.[dP].P}$PEPTIDE1,PEPTIDE1,1:R1-14:R2$$$V2.0”, the “purity (crude or final not stated)” value was 90%. In the case of “PEPTIDE1{L.S.Y.[Dab].[Orn].[DDab].[Dab].W.[Dab].V.A.S.[dP].P}$PEPTIDE1,PEPTIDE1,1:R1-14:R2$$$V2.0”, the “purity (crude or final not stated)” value is reported as 89%. In the case of “PEPTIDE1{L.S.Y.[Dab].[Orn].[DDab].[Dab].W.[Dab].W.A.S.[dP].P}$PEPTIDE1,PEPTIDE1,1:R1-14:R2$$$V2.0”, the “purity (crude or final not stated)” value is reported as 93%. For “PEPTIDE1{L.S.Y.[Dab].[Orn].[DDab].[Dab].W.[Dab].Y.A.S.[dP].P}$PEPTIDE1,PEPTIDE1,1:R1-14:R2$$$V2.0”, the “purity (crude or final not stated)” value was 89%. For “PEPTIDE1{L.S.Y.[Dab].[Orn].[DDab].[Dab].W.[Dab].[Chg].A.S.[dP].P}$PEPTIDE1,PEPTIDE1,1:R1-14:R2$$$V2.0”, the “purity (crude or final not stated)” value was 85%. For “PEPTIDE1{L.S.Y.[Dab].[Orn].[DDab].[Dab].W.[Dab].[Nva].A.S.[dP].P}$PEPTIDE1,PEPTIDE1,1:R1-14:R2$$$V2.0”, the “purity (crude or final not stated)” value was 81%. With “PEPTIDE1{L.S.Y.[Dab].[Orn].[DDab].[Dab].W.[Dab].[Phg].A.S.[dP].P}$PEPTIDE1,PEPTIDE1,1:R1-14:R2$$$V2.0” the “purity (crude or final not stated)” value was 90%. In the case of “PEPTIDE1{L.S.Y.[Dab].[Orn].[DDab].[Dab].W.[Dab].[tBuGly].A.S.[dP].P}$PEPTIDE1,PEPTIDE1,1:R1-14:R2$$$V2.0”, the “purity (crude or final not stated)” value is reported as 95%. With “PEPTIDE1{L.S.Y.[Dab].[Orn].[DDab].[Dab].W.[Dab].[tBuGly].[dA].S.[dP].P}$PEPTIDE1,PEPTIDE1,1:R1-14:R2$$$V2.0” the “purity (crude or final not stated)” value was 88%. With “PEPTIDE1{L.S.Y.[Dab].[Orn].[DDab].[Dab].W.[Dap].[tBuGly].A.S.[dP].P}$PEPTIDE1,PEPTIDE1,1:R1-14:R2$$$V2.0” the “purity (crude or final not stated)” value was 87%. With “PEPTIDE1{L.S.Y.[Dab].[Orn].[DDab].[Dab].W.[Hse].[tBuGly].A.S.[dP].P}$PEPTIDE1,PEPTIDE1,1:R1-14:R2$$$V2.0” the “purity (crude or final not stated)” value was 90%. With “PEPTIDE1{L.S.Y.[Dab].[Orn].[DDab].[Dap].W.[Dab].[tBuGly].A.S.[dP].P}$PEPTIDE1,PEPTIDE1,1:R1-14:R2$$$V2.0” the “purity (crude or final not stated)” value was 86%. With “PEPTIDE1{L.S.Y.[Dab].[Orn].[DDab].[Orn].W.[Dab].[tBuGly].A.S.[dP].P}$PEPTIDE1,PEPTIDE1,1:R1-14:R2$$$V2.0” the “purity (crude or final not stated)” value was 92%. For “PEPTIDE1{L.S.Y.[Dab].[Orn].[Dab].[Dab].W.[Dab].[Chg].A.S.[dP].P}$PEPTIDE1,PEPTIDE1,1:R1-14:R2$$$V2.0”, the “purity (crude or final not stated)” value was 88%. For “PEPTIDE1{L.S.Y.[Dab].[Orn].[Dab].[Dab].W.[Dab].[tBuGly].A.S.[dP].P}$PEPTIDE1,PEPTIDE1,1:R1-14:R2$$$V2.0”, the “purity (crude or final not stated)” value was 87%. With “PEPTIDE1{L.S.Y.[Dap].[Orn].[DDab].[Dab].W.[Dab].[tBuGly].A.S.[dP].P}$PEPTIDE1,PEPTIDE1,1:R1-14:R2$$$V2.0” the “purity (crude or final not stated)” value was 89%. In the case of “PEPTIDE1{L.S.Y.[Orn].[Orn].[D-Dab].[Dab].W.[Dab].[tBuGly].A.S.[dP].P}$PEPTIDE1,PEPTIDE1,1:R1-14:R2$$$V2.0”, the “purity (crude or final not stated)” value is reported as 86%. With “PEPTIDE1{L.S.[Cha].[Dab].[Orn].[D-Dab].[Dab].W.[Dab].[tBuGly].A.S.[dP].[Pro((3S)OH)]}$PEPTIDE1,PEPTIDE1,1:R1-14:R2$$$V2.0” the “purity (crude or final not stated)” value was 77%. For “PEPTIDE1{L.S.[Cha].[Dab].[Orn].[D-Dab].[Dab].W.[Dab].[tBuGly].[Alb].S.[dP].[Pro((3S)OH)]}$PEPTIDE1,PEPTIDE1,1:R1-14:R2$$$V2.0”, the “purity (crude or final not stated)” value was 83%. With “PEPTIDE1{L.S.[Cha].[Dab].[Orn].[DDab].[Dab].W.[Dab].V.A.S.[dP].P}$PEPTIDE1,PEPTIDE1,1:R1-14:R2$$$V2.0” the “purity (crude or final not stated)” value was 92%. In the case of “PEPTIDE1{L.S.[Cha].[Dab].[Orn].[DDab].[Dab].W.[Dab].[tBuGly].A.S.[dP].P}$PEPTIDE1,PEPTIDE1,1:R1-14:R2$$$V2.0”, the “purity (crude or final not stated)” value is reported as 92%.
